The values that follow come from paper PMC10474093.

Chains of the proteins cited; added tags and fusions are not shown. Residues count along the entry.
UniProt P11021, residues 19-654: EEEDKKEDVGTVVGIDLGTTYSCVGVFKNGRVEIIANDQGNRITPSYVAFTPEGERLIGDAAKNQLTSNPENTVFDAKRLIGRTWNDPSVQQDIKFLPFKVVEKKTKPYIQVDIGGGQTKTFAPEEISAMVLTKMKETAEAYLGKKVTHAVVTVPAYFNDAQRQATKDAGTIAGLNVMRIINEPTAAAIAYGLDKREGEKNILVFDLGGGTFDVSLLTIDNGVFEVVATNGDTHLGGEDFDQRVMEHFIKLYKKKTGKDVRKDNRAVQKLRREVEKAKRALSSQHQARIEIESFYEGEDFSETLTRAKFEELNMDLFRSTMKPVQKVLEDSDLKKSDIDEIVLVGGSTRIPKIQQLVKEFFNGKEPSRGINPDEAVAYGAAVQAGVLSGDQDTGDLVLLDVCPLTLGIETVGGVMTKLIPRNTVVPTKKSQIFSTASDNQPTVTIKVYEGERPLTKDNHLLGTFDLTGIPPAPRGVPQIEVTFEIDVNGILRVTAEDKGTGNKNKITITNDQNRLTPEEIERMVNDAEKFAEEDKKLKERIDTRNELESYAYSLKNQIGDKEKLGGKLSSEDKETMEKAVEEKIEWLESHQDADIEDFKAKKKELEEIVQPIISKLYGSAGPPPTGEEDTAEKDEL
UniProt P33527: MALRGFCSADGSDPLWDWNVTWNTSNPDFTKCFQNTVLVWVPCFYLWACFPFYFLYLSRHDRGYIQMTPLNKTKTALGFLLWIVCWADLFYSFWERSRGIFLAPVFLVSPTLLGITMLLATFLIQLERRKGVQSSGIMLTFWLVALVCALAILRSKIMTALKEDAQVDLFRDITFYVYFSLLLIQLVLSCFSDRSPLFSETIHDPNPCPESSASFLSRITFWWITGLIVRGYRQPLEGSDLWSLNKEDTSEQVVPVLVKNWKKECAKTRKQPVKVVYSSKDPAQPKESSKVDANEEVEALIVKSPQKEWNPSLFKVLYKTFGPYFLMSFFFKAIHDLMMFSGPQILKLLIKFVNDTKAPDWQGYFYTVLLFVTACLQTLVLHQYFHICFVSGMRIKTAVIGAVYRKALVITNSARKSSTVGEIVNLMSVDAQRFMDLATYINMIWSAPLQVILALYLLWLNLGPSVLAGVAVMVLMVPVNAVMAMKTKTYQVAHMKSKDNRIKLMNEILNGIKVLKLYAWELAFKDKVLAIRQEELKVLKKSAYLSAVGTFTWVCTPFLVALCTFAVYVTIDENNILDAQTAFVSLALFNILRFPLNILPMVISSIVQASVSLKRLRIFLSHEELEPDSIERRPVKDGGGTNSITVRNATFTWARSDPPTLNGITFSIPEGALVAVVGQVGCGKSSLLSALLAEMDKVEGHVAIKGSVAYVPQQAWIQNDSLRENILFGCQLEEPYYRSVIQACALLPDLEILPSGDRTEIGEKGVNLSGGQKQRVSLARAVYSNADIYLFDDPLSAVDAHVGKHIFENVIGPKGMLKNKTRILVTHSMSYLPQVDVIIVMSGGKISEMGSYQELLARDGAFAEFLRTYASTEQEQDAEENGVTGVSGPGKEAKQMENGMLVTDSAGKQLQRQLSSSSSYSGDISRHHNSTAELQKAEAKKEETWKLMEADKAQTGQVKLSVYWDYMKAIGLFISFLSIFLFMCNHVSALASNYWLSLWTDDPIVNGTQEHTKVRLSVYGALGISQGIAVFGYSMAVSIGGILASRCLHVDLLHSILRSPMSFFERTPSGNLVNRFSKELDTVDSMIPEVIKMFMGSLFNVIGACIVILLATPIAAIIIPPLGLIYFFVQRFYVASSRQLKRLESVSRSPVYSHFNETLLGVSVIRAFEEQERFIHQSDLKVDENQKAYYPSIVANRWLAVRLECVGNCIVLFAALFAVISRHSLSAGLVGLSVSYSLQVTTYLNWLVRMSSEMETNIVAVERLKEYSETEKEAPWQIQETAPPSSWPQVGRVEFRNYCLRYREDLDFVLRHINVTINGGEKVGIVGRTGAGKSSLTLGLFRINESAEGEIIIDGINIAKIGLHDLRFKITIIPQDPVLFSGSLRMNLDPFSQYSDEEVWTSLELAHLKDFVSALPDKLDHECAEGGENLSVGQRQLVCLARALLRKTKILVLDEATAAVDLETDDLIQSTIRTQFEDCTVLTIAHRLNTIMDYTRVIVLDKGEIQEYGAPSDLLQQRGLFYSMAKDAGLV

These are yes or no findings as the source states them, for the method shown. In cells and extracts the contact can be indirect. Some entries that bind do so weakly or less than the wild type.

Experiment [1] has as its target Glucose-regulated protein 78 (GRP78) (human (endogenous in DLD1)) (UniProt P11021). Briefly: co-IP; endogenous GRP78 and MRP1 in DLD1 cells; lysis in NETN buffer (20 mM Tris-HCl pH 8.0, 100 mM NaCl, 0.5% NP-40, 1 mM EDTA), Protein A/G plus agarose beads with indicated antibodies overnight at 4 °C; also after 20% TAMs-CM-T treatment (more interaction) and in the presence of HA15 (less interaction).

For experiment [2], the target named is GRP78 (WT), overexpressed full-length GRP78 (human) (UniProt P11021). Briefly: co-IP; DLD1 cells overexpressing GRP78 (WT), deletion mutants or T453D; lysis in NETN buffer, beads washed three times with NETN buffer; MRP1 detected in the complex of GRP78.

For the substance “multidrug resistance-associated protein MRP1 (from UniProt P33527 1-1531)”, the binding entry in experiment [1] and in experiment [2] was “binds” throughout.
